Measurements published in the supplement of paper PMC5949888.
Most values lie at the floor of the assay. Slopes are relative: functional sequences can read slightly below zero.

These substances were tested on Saccharomyces cerevisiae PS128 hsf1 delta, HSF1(1-493) fusion (assay: growth estimate (transactivation domain function in HSF1 fusion, heat-shock survival) (a.u. (slope of normalised read count over time)); higher = stronger growth at 37°C, i.e. more transactivation activity). Conditions: library: random library.
Method: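 Random 60-nt DNA library encoding peptides of up to 20 aa, fused to the C-terminus of yeast HSF1 residues 1-493 (C-terminal TAD deleted) and expressed from the native HSF1 promoter on a CEN plasmid in hsf1-deleted S. cerevisiae PS128. Cells were selected at 37°C on -trp 5-FOA plates for 0, 2, 4, 6 and 8 days and amplicons were sequenced. Growth estimate is the slope of a robust linear fit of total-sum-normalised read counts (normalised to the first time point) over time, using at least 2 replicates. Sequences are classed functional (TAD activity) above a threshold of -0.13, set from stop-codon control sequences.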
With AQRLRLDCKVLPARCALWER the growth estimate was under -0.25. In the case of AQRRYAYLLQ, the growth estimate is reported as under -0.25. Substance AQTTNDRP has a growth estimate of under -0.25. Work on AQVLFCRWFLGHGQNPVGKD yielded a growth estimate of under -0.25. In the case of AQVPRQQSPQVLHSIRRPGS, the growth estimate is reported as under -0.25. With AQVTC the growth estimate was under -0.25. AQVYKICPPRGVCM gave a growth estimate of under -0.25. For ARAGDTSET, the growth estimate was under -0.25. Substance ARATYKVSIGDRLGNSLRIV has a growth estimate of under -0.25. In the case of ARDFADSL, the growth estimate is reported as under -0.25. Substance ARDRHTADFSPSVLAQINWS has a growth estimate of under -0.25. ARE showed a growth estimate of under -0.25. In the case of ARECHVCAQLKRSS, the growth estimate is reported as under -0.25. AREEGSRATLPYGGYCR showed a growth estimate of under -0.25. With AREQYAYVRFTPH the growth estimate was -0.231. For ARERGNRLYIQHISSCLVPA, the growth estimate was under -0.25. Substance ARFIHGPPAGNRSRN has a growth estimate of under -0.25. For ARFRLGS, the growth estimate was under -0.25. For ARFSILCKGSNHVEKGFRSD, the growth estimate was under -0.25. For ARGAIKGNKLILVTRGGGFR, the growth estimate was under -0.25. For ARGALIVPLIRLLGIRAGGA, the growth estimate was under -0.25. Substance ARGDYIGSGLLFSPDLPEYG has a growth estimate of under -0.25. For ARGEDEFADNGWGRIVAVKL, the growth estimate was under -0.25. Substance ARGGILCH has a growth estimate of under -0.25. ARGHGSCRDFVSLGSPT showed a growth estimate of under -0.25. For ARGR, the growth estimate was under -0.25. Substance ARINRPARGSIALPGLC has a growth estimate of under -0.25. Substance ARISGWRGSE has a growth estimate of -0.241. Work on ARKGLLRIISDR yielded a growth estimate of under -0.25. For ARLHRLTERP, the growth estimate was under -0.25. ARLIGTRALRLWMIRI was tested, and the growth estimate was under -0.25. Work on ARLKVERSGFPC yielded a growth estimate of under -0.25. With ARLLSTLLSAV the growth estimate was under -0.25. Work on ARLQGP yielded a growth estimate of under -0.25. Substance ARLSSLKVASVRRGQRSTNV has a growth estimate of -0.245. ARLVLHLPQGSKLNTFDQSR was tested, and the growth estimate was under -0.25. Substance ARMPE has a growth estimate of under -0.25. ARMQADHQPLGLLSTPTVDL was tested, and the growth estimate was under -0.25. ARMSYASAPKRCEPAGVDLC was tested, and the growth estimate was under -0.25. In the case of ARMVAVMERA, the growth estimate is reported as under -0.25. In the case of ARPLYVRC, the growth estimate is reported as under -0.25. ARQ showed a growth estimate of under -0.25. For ARQVVSFKSNGVAGRRPGGN, the growth estimate was under -0.25. For ARREMPRLMRHPAFLGQTVP, the growth estimate was under -0.25. ARRGAGRARGGPRRDVCFMS showed a growth estimate of under -0.25. For ARRHIRRNMTSKFREL, the growth estimate was under -0.25. For ARRHVQDYANVLGGGGTESA, the growth estimate was under -0.25. ARRNQ showed a growth estimate of under -0.25. With ARRSFMGCGSILRGSSQQPV the growth estimate was under -0.25. In the case of ARRSTVGRFRSIQSHPGAMH, the growth estimate is reported as under -0.25. Work on ARRVLAPWDLLIGSGSHFTS yielded a growth estimate of under -0.25. In the case of ARRYLR, the growth estimate is reported as -0.198. Substance ARSFPDTLFHSRASYTAKLP has a growth estimate of under -0.25. ARSLPSGSSRADRWTSEFRL showed a growth estimate of under -0.25. With ARSSNPRVACHLLY the growth estimate was under -0.25. For ARSSRFGGQRVNF, the growth estimate was under -0.25. Substance ARSV has a growth estimate of under -0.25. With ARSVE the growth estimate was under -0.25. In the case of ARTAMDTLCLRQCVARPGLP, the growth estimate is reported as under -0.25. For ARTGLHVQFTAPVSNEPWCF, the growth estimate was under -0.25. ARTPGCRTSTVMDWIDSQDA was tested, and the growth estimate was under -0.25. Work on ARTVRRMR yielded a growth estimate of under -0.25. Work on ARVDIVGFTSLL yielded a growth estimate of under -0.25. Substance ARVKLTKYS has a growth estimate of under -0.25. With ARVYFKD the growth estimate was under -0.25. For ARWDTLSIGIASRRTCRLAD, the growth estimate was under -0.25. Substance ARWVTN has a growth estimate of -0.246. With ASADPLP the growth estimate was under -0.25. Substance ASAGTRIVGTPCVQLARTPL has a growth estimate of under -0.25. Work on ASAHLWPRRNSVVGWCRDAR yielded a growth estimate of under -0.25. Work on ASAK yielded a growth estimate of under -0.25. ASATDAIARAGADSLVAVPC gave a growth estimate of under -0.25. Work on ASCCKHTYSIS yielded a growth estimate of under -0.25. With ASCEGASTGRVHRESLRDSP the growth estimate was under -0.25. For ASCIGQPL, the growth estimate was under -0.25. In the case of ASCIISLVRSTSGCIRWDSQ, the growth estimate is reported as under -0.25. ASCRGGKRRNSWKGPSGLHL gave a growth estimate of under -0.25. ASCRGPRRAPKMGPASLCHR was tested, and the growth estimate was under -0.25. For ASERGGRFDGHQLPLTDLYR, the growth estimate was under -0.25. With ASERW the growth estimate was under -0.25. In the case of ASFHSE, the growth estimate is reported as 0.145. Substance ASFR has a growth estimate of under -0.25.
